Our source for the Inhibition values is ChEMBL document CHEMBL4513141, “CO-ADD screening of NIH (USA) - Clinical Collection” (2021).

This is one part of the list. Measured potencies and affinities stand elsewhere.

The test system of the assay is Acinetobacter baumannii. The settings on record: Concentration 20 uM; ASSAY_TEST Inhibition of Bacterial Growth; detection method Absorption (OD600); MEDIA CAMHB; plate type 384well; NBS; CORNING #3640; time 18 hr.
In general, Inhibition refers to the percentage by which the read-out fell short of the control. In turn, `CC(=O)OCC(=O)[C@@]1(O)CC[C@H]2[C@@H]3CCC4=CC(=O)C=C[C@]4(C)[C@H]3[C@@H](O)C[C@@]21C` [PREDNISOLONE ACETATE] gave an Inhibition of 25.62%.

`Oc1ncc(F)cn1` returned an Inhibition of 29.89%. For `COC(=O)C1=C(C)NC(C)=C(C(=O)OCCN(C)Cc2ccccc2)C1c1cccc([N+](=O)[O-])c1.Cl` (centres undefined) [NICARDIPINE HYDROCHLORIDE] the value was 9.21%. Take `CCC(=O)[N-]S(=O)(=O)c1ccc(-c2c(-c3ccccc3)noc2C)cc1.[Na+]` [PARECOXIB SODIUM]: the Inhibition was 9.28%.

With `CC(C)(C(=O)O)c1ccc(C(O)CCCN2CCC(C(O)(c3ccccc3)c3ccccc3)CC2)cc1.Cl` (centres undefined) [FEXOFENADINE HYDROCHLORIDE], the Inhibition is listed as 26.33%. For `CN1CCN(CC/C=C2/c3ccccc3Sc3ccc(S(=O)(=O)N(C)C)cc32)CC1` [THIOTHIXENE] the value was 8.44%. For `CN(C)CC/C=C1/c2ccccc2COc2ccc(CC(=O)O)cc21.Cl` [OLOPATADINE HYDROCHLORIDE] the value was 3.87%; for `CC1=C(C(=O)O)N2C(=O)[C@@H](NC(=O)[C@H](N)c3ccccc3)[C@H]2SC1.O` [CEPHALEXIN], 9.65%.

`C=C(CC)C(=O)c1ccc(OCC(=O)O)c(Cl)c1Cl` [ETHACRYNIC ACID] showed an Inhibition of 27.96%.

On to `CCC(C)(C)/N=C(\NC#N)Nc1cccnc1`, for which the Inhibition is given as 11.34%.

As to `C[C@]12C[C@H](O)[C@H]3[C@@H](CCC4=CC(=O)CC[C@@]43C)[C@@H]1CC[C@@H]2C(=O)CO` [CORTICOSTERONE], the Inhibition was 27.36%. Consider `CC(CCCCC(=O)Nc1ccc(C(F)(F)F)cc1)NCCc1c[nH]cn1.O=C(O)/C=C\C(=O)O.O=C(O)/C=C\C(=O)O` (centres undefined), for which the Inhibition is given as 8.6%. The value for `O=C(O)CCc1nc(-c2ccccc2)c(-c2ccccc2)o1` [OXAPROZIN] was 21.17%.

As for `CCN(CC)CCNC(=O)c1cc(Cl)c(N)cc1OC.Cl`, the Inhibition is on record as 16.26%. The value for `Clc1ccc2c(c1)C(N1CCNCC1)=Nc1ccccc1O2` [AMOXAPINE] was 16.77%; that for `CCCSc1ccc2[nH]c(NC(=O)OC)nc2c1` [ALBENDAZOLE] was 18.94%; that for `Cc1ccc(N(CC2=NCCN2)c2cccc(O)c2)cc1` [PHENTOLAMINE] was 34.66%. Take `O=C1N[C@H](C(=O)O)CS1` [PROCYSTEINE]: the Inhibition is reported as 17.69%.

Turning to `C[C@H](N[C@@H](CCc1ccccc1)C(=O)O)C(=O)N1CCC[C@H]1C(=O)O` [ENALAPRILAT ANHYDROUS], the Inhibition was found to be 11.14%.

Turning to `COC(=O)[C@H](c1ccccc1Cl)N1CCc2sccc2C1` [CLOPIDOGREL], the Inhibition is reported as 23.6%. In the case of `CCOC(=O)N1CCC(=C2c3ccc(Cl)cc3CCc3cccnc32)CC1` [LORATADINE], the Inhibition stood at 12.99%. The value for `O=C1C(c2c(O)[nH]c3ccccc23)=Nc2ccccc21` was 27.29%; that for `Sc1ncnc2nc[nH]c12` [MERCAPTOPURINE ANHYDROUS] was 19.41%; that for `O=C1C(CC[S+]([O-])c2ccccc2)C(=O)N(c2ccccc2)N1c1ccccc1` (centres undefined) [SULFINPYRAZONE] was 24.87%.

With `CS(=O)(=O)O.Oc1ccc(C2CNCCc3c2cc(O)c(O)c3Cl)cc1` (centres undefined) [FENOLDOPAM MESYLATE], the Inhibition came to 18.57%. For `CCC(C)(C)C(=O)O[C@H]1C[C@@H](C)C=C2C=C[C@H](C)[C@H](CC[C@@H]3C[C@@H](O)CC(=O)O3)[C@H]21` [SIMVASTATIN], the Inhibition came to 12.35%. For `O=C(O[C@H]1[C@H](Oc2ccccc2COC(=O)C2(O)C=CCCC2=O)O[C@H](CO)[C@@H](O)[C@@H]1O)c1ccccc1` (some centres undefined) [TREMULACIN] the value was 8.18%; for `Nc1ccc(O)c(C(=O)O)c1` [MESALAMINE], 6.42%; for `O=C([O-])c1cc(=O)c2c(OCC(O)COc3cccc4oc(C(=O)[O-])cc(=O)c34)cccc2o1.[Na+].[Na+]` [CROMOLYN SODIUM], 20.97%. The value for `CN1CCN(CCCN2c3ccccc3Sc3ccc(C(F)(F)F)cc32)CC1.Cl.Cl` [TRIFLUOPERAZINE HYDROCHLORIDE] was 24.27%. The value for `CN(CCOc1ccc(NS(C)(=O)=O)cc1)CCc1ccc(NS(C)(=O)=O)cc1` [DOFETILIDE] was 28.46%; that for `CCN(CC)CCOC(=O)C1(C2CCCCC2)CCCCC1.Cl` [DICYCLOMINE HYDROCHLORIDE] was 27.79%; that for `COc1ccnc(C[S+]([O-])c2nc3cc(OC(F)F)ccc3[n-]2)c1OC.O.[Na+]` (centres undefined) [PANTOPRAZOLE SODIUM] was 25.84%. Molecule `CC1(C)O[C@@H]2C[C@H]3[C@@H]4C[C@H](F)C5=CC(=O)C=C[C@]5(C)[C@@]4(F)[C@@H](O)C[C@]3(C)[C@]2(C(=O)CO)O1` [FLUOCINOLONE ACETONIDE] registered an Inhibition of 12.58%. For `C=CCc1ccc(O)c(-c2ccc(O)c(CC=C)c2)c1` [HONOKIOL] the value was 25.67%; for `CC(C)C[C@H](NC(=O)[C@@H](O)[C@H](N)Cc1ccccc1)C(=O)O` [UBENIMEX], 16.7%. Consider `Nc1c2c(nc3c1CCC3)CCCC2` [IPIDACRINE], for which the Inhibition amounted to 27.58%. `CCc1cc(C(N)=S)ccn1` [ETHIONAMIDE] came in with an Inhibition of 16.23%. For `CNCCC=C1c2ccccc2CCc2ccccc21.Cl` [NORTRIPTYLINE HYDROCHLORIDE] the value was 22.47%; for `CNC(=C[N+](=O)[O-])NCCSCc1csc(CN(C)C)n1` [NIZATIDINE], 30.24%.

In turn, `COc1cc(C)nc(-n2nc(C)cc2OC)n1` [EPIRIZOLE] displayed an Inhibition of 11.15%. As to `Cl.O=C1c2c(O)ccc(O)c2C(=O)c2c(NCCNCCO)ccc(NCCNCCO)c21`, the Inhibition was found to be 34.55%. The value for `CCCc1nc(C)c2c(O)nc(-c3cc(S(=O)(=O)N4CCN(CC)CC4)ccc3OCC)nn12.O=C(O)CC(O)(CC(=O)O)C(=O)O` was 21.4%; that for `CC(c1cc2ccccc2s1)N(O)C(N)=O` (centres undefined) [ZILEUTON] was 10.68%. The value for `CN(C)CCC[C@@]1(c2ccc(F)cc2)OCc2cc(C#N)ccc21.O=C(O)C(=O)O` [ESCITALOPRAM OXALATE] was 14.48%; that for `CC(C)OC(=O)CCC/C=C\C[C@@H]1[C@@H](CC[C@@H](O)CCc2ccccc2)[C@H](O)C[C@@H]1O` [LATANOPROST] was 28.04%; that for `COc1cc(C)c(/C=C/C(C)=C/C=C/C(C)=C/C(=O)O)c(C)c1C` [ACITRETIN] was 8.14%.

`NS(=O)(=O)c1cc2c(cc1Cl)NCNS2(=O)=O` [HYDROCHLOROTHIAZIDE] yielded an Inhibition of 24.87%. In turn, `COc1cc2nc(N3CCN(C(=O)C4CCCO4)CC3)nc(N)c2cc1OC` (centres undefined) [TERAZOSIN] displayed an Inhibition of 18.79%. For `O=C1c2c(O)cc(O)cc2O[C@H](c2ccc(O)c(O)c2)[C@H]1O` [(+)-TAXIFOLIN] the value was 8.51%; for `COC(=O)C1=C(C)NC(C)=C(C(=O)O[C@@H]2CCCN(Cc3ccccc3)C2)[C@@H]1c1cccc([N+](=O)[O-])c1.Cl`, 5.09%. The value for `CN1CCN(c2nc3cc(C(F)(F)F)ccc3n3cccc23)CC1.O=C(O)/C=C\C(=O)O.O=C(O)/C=C\C(=O)O` was 3.28%; that for `C#C[C@]1(O)CC[C@H]2[C@@H]3CCc4cc(O)ccc4[C@H]3CC[C@@]21C` [ETHINYL ESTRADIOL] was 24.62%; that for `Cl.c1ccc2c(c1)CCCC2C1=NCCN1` (centres undefined) [TETRAHYDROZOLINE HYDROCHLORIDE] was 16.25%. As to `CCCC(=O)Nc1ccc(OCC(O)CNC(C)C)c(C(C)=O)c1.Cl` (centres undefined) [ACEBUTOLOL HYDROCHLORIDE], the Inhibition is 17.91%.

The molecule `CN(C)CCOC(c1ccc(Cl)cc1)c1ccccn1.O=C(O)/C=C\C(=O)O` (centres undefined) [CARBINOXAMINE MALEATE] came in with an Inhibition of 33.6%. For `CC(=O)[C@H]1CC[C@H]2[C@@H]3C[C@H](C)C4=CC(=O)CC[C@]4(C)[C@H]3[C@@H](O)C[C@]12C` [MEDRYSONE] the value was 11.56%; for `OCCN1CCN(CCCN2c3ccccc3Sc3ccc(Cl)cc32)CC1` [PERPHENAZINE], 19.54%.

In turn, `Nc1ccc(S(=O)(=O)c2ccc(N)cc2)cc1` [DAPSONE] gave an Inhibition of 2.33%. `O=C(CCCN1CC=C(n2c(=O)[nH]c3ccccc32)CC1)c1ccc(F)cc1` [DROPERIDOL] registered an Inhibition of 15.21%. For `CC(=O)S[C@@H]1CC2=CC(=O)CC[C@]2(C)[C@H]2CC[C@@]3(C)[C@@H](CC[C@@]34CCC(=O)O4)[C@H]12` [SPIRONOLACTONE] the value was 30.58%; for `COc1ccc(-c2oc3c(CC=C(C)C)c(O[C@@H]4O[C@H](CO)[C@@H](O)[C@H](O)[C@H]4O)cc(O)c3c(=O)c2O[C@@H]2O[C@@H](C)[C@H](O)[C@@H](O)[C@H]2O)cc1` [ICARIIN], 19.01%. The value for `COc1ccc2cc(CCC(C)=O)ccc2c1` [NABUMETONE] was 23.59%. The value for `CN1CCCCC1CCN1c2ccccc2Sc2ccc([S+](C)[O-])cc21.O=S(=O)(O)c1ccccc1` (centres undefined) [MESORIDAZINE BESYLATE] was 9.07%. Molecule `Cc1ncc([N+](=O)[O-])n1CCO` [METRONIDAZOLE] gave an Inhibition of 26.53%. The value for `CCN(Cc1ccncc1)C(=O)C(CO)c1ccccc1` (centres undefined) [TROPICAMIDE] was 23.48%; that for `CCCCc1nc(Cl)c(CO)n1Cc1ccc(-c2ccccc2-c2nnn[n-]2)cc1.[K+]` [LOSARTAN POTASSIUM] was 12.59%. For `CNCCCCOc1ccccc1Cc1ccccc1.Cl` the value was 28.65%. The molecule `Nc1nc(=O)c2nc(CNc3ccc(C(=O)N[C@@H](CCC(=O)O)C(=O)O)cc3)cnc2[nH]1` [FOLIC ACID] came in with an Inhibition of 30.13%.
